For the data set, the target named is T1, Serum response factor (SRF) (UniProt D3ZHH8).
T1 sequence (looked up, limits assumed): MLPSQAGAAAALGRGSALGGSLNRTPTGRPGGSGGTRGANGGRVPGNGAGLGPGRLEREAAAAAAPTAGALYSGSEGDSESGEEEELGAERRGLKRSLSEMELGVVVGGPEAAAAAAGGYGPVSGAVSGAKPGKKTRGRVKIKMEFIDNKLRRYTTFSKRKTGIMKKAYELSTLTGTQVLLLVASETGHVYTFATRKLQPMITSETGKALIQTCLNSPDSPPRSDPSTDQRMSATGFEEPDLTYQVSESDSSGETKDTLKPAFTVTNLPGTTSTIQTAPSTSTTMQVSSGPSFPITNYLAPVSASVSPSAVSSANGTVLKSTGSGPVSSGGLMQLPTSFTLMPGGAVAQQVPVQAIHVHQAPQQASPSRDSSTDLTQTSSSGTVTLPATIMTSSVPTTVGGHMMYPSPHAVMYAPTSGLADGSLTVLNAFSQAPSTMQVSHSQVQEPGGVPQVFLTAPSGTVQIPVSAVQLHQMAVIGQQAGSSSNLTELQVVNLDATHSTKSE
The data set is described as follows: EMSA. The settings on record: synthetic protein. On the technique in general: A gel shift assay detects complexes by their altered migration in electrophoresis.

The comparison behind a weaker result is the experiment's own reference, which may not be listed here. Protein sequences can lack the tags named with them. For at least one entry, the source does not settle the construct or the ends of the probe. No signal at the amounts used counts as a negative.

Consider “AATAATTAAA (double strand) [Intronic CArG mut]”, for which the binding result (CITED previously shown to abolish SRF binding in gel shift, only mutated 10-mer core printed) is “no binding”.
As to AATTGTTTAA (double strand) [CArG A mut], the binding result (CITED previously shown to abolish SRF binding in gel shift, only mutated 10-mer core printed, variant of CArG A (SM alpha-actin 5' promoter)) is “no binding”.
As for CCCTATATCA (double strand) [CArG B mut], where the note is “CITED previously shown to abolish SRF binding in gel shift, only mutated 10-mer core printed, variant of CArG B (SM alpha-actin 5' promoter)”, the binding result was “no binding”.
Take “GAGGTCCCTATATGGTTGTG (double strand) [CArG B (SM alpha-actin 5' promoter)]”: the binding result (binds SRF, less avidly than intronic CArG, same buffer, label: 32P end label) is listed as “binds more weakly”.
For the sequence “TTGCTCCTTGTTTGGGAAGC (double strand) [CArG A (SM alpha-actin 5' promoter)]”, the binding result (binds SRF poorly, less avidly than intronic CArG, same buffer, label: 32P end label) is “binds more weakly”.

Source of the values: patent US6825035, “Compositions and methods for modulating expression within smooth muscle cells” (Setagon, Inc.).
